{
  "sequences": {"note": "By UniProt entry, the sequences of proteins in these tests, tags left out. Where a name states a change or a piece, a line headed by the entry shows the natural chain unless it says otherwise.", "UniProt Q9PVE4": "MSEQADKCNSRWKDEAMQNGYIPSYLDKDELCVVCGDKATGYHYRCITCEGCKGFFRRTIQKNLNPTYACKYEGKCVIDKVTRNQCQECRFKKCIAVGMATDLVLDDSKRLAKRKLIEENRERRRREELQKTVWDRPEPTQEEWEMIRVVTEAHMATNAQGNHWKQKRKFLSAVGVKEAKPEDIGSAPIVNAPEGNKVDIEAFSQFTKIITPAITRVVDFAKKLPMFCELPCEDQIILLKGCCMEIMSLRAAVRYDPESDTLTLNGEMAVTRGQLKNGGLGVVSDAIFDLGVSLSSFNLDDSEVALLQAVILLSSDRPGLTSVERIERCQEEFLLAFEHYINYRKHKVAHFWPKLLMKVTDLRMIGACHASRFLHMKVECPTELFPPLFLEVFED"},
  "source": "PubChem BioAssay (EPA / NIEHS)",
  "note": "“And” between values parts separate entries of the source, which are not always exact repeats. Equal entries are not always repeated. Inconclusive results, whose numbers are uncertain, are shown with a selection of clear calls. Potencies of inconclusive entries are doubtful fits and often do not repeat. More than one record can exist for a structure, and the calls need not agree. The source made the active and inactive calls. How the source made its calls: active means hit-call score of the fitted dose curve at least 0.9, where 1 is the maximum; inconclusive means response in the unintended direction; inactive means score below 0.9.",
  "data": [
    {"biological_target": "zebrafish Thyroid Hormone Receptor beta (TRb), thrb (gene 30607) (UniProt Q9PVE4)", "experiment": "ATG_zfTRb_XSP2: Attagene TRANS-FACTORIAL Multi-Species (XSP1) HepG2 Assay for zebrafish Thyroid Hormone Receptor beta (TRb) (AID 2283836);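 on AC50: potency for induction of reporter signal above DMSO so agonist direction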", "experimental": "ATG_XSP2_multi-species_TRANS is a cell-based, multiplexed assay created by modifying the existing Attagene TRANS-FACTORIAL system to include a panel of nuclear receptors from some or all the following species: human (Homo sapiens), mouse (Mus musculus), frog (Xenopus laevis), zebrafish (Danio rerio), chicken (Gallus gallus), and turtle (Chrysemys picta). The ECOTOX-FACTORIAL format uses HepG2, a human liver cell line, with measurements taken at 24 hours after chemical dosing in a 24-well plate. Xsp2 included 3 nM 6-alpha-fluorotestosterone and 1.5 nM norgestrel to stimulate the androgen receptor.ATG_zfTRb_XSP2 is one of 29 assay components measured or calculated from the ATG_XSP2_multi-species_TRANS assay. It is designed to make measurements of mRNA induction, a form of inducible reporter, as detected with fluorescence intensity signals by Reverse transcription polymerase chain reaction (RT-PCR) and Capillary electrophoresis technology.The assay endpoint ATG_zfTRb_XSP2 was analyzed in the positive analysis fitting direction relative to DMSO as the negative control and baseline of activity. Using a type of inducible reporter, measures of mRNA for gain-of-signal activity can be used to understand the reporter gene at the transcription factor-level as they relate to the gene TR. Furthermore, this assay endpoint can be referred to as a primary readout, because this assay has produced multiple assay endpoints where this one serves a reporter gene function. To generalize the intended target to other relatable targets, this assay endpoint is annotated to the nuclear receptor intended target family, where the subfamily is non-steroidal.\nHuman liver HepG2 cells are transiently transfected with multiple reporter transcription units (MRTUs) in 6-well plates using FuGene 6 reagent (Roche; 3 ml FuGene/1 mg DNA). The MRTU constructs are regulated by a cis-regulating element (promoter). […] A major difference between the CIS and TRANS system is that in CIS activities of endogenous TFs are measured, whereas the TRANS assay evaluates changes in activities of exogenous, chimeric NR-Gal4 proteins. […] At the end of 24 hour incubation, total RNA was isolated using TriZol reagent (Invitrogen). The isolated RNA is then reverse-transcribed using oligo(dT) primer and Mo-MLV reverse transcriptase (Invitrogen) with DNAse I (Ambion) treatment for 30 min. The one-tenth of the produced cDNA was amplified by PCR using Taq DNA polymerase (Invitrogen) and two reporter sequence-specific primers. The PCR products were fluorescently labeled by primer extension with 6-arboxyfluorescein (6-FAM) 5'-labeled reporter sequence-specific primer (2 min at 95 C, 20 s at 68 C and 10 min at 72 C) and these products were digested with 5U of HpaI (New England Biolabs) for 2h at 37 C. The fragments were purified using Qiaquick PCR columns (Qiagen), analyzed on an ABI 3130xL genetic analyzer (Applied Biosystems) with peak positions identified by using a set of X-rhodamine (ROX)-labeled MapMarker1000 molecular weight standards (BioVentures). The raw capillary electrophoresis data was processed using Attagraph software (Attagene).", "values": [
      {"smiles": "CCCOCC(=Nc1ccc(Cl)cc1C(F)(F)F)n1ccnc1", "outcome": "inactive"},
      {"smiles": "CC12CC1(C)C(=O)N(c1cc(Cl)cc(Cl)c1)C2=O", "note": "(centres undefined)", "AC50": "inconclusive: 0.439 µM", "outcome": "inactive"},
      {"smiles": "CCC(=O)O[C@H]1CC[C@H]2[C@@H]3CCC4=CC(=O)CC[C@]4(C)[C@H]3CC[C@]12C", "AC50": "inconclusive: 0.024 µM"},
      {"smiles": "CC(C)Oc1cc(-n2nc(C(C)(C)C)oc2=O)c(Cl)cc1Cl", "AC50": "inconclusive: 0.227 µM"},
      {"smiles": "O=S(=O)(c1ccc(O)cc1)c1ccc(O)cc1", "AC50": "inconclusive: 25.9 µM"},
      {"smiles": "CCCCCOC(=O)c1ccccc1C(=O)OCCCCC", "AC50": "inconclusive: 100 µM"},
      {"smiles": "Clc1ccc(C2(Cn3cncn3)CC(Br)CO2)c(Cl)c1", "note": "(centres undefined)", "outcome": "inactive"},
      {"smiles": "O=S(=O)(c1ccc(Cl)cc1)c1ccc(Cl)cc1", "outcome": "inactive", "AC50": "inconclusive: 1.41 µM"},
      {"smiles": "Oc1ccc(Cl)cc1Cc1ccccc1", "AC50": "active: 10 µM"},
      {"smiles": "CCC(CC)Nc1c([N+](=O)[O-])cc(C)c(C)c1[N+](=O)[O-]", "AC50": "inconclusive: 0.0108 µM"},
      {"smiles": "C[C@H]1CCCC(=O)CCC/C=C/c2cc(O)cc(O)c2C(=O)O1", "AC50": "inconclusive: 100 nM and inconclusive: 0.149 nM"},
      {"smiles": "C[C@]12C=CC3=C4CCC(=O)C=C4CC[C@H]3[C@@H]1CC[C@@H]2O", "AC50": "inconclusive: 0.1 µM"},
      {"smiles": "C[C@]12CCC(=O)C[C@@H]1CC[C@@H]1[C@@H]2CC[C@]2(C)[C@@H](O)CC[C@@H]12", "outcome": "inactive"},
      {"smiles": "CCC(C)c1ccc(O)cc1", "note": "(centres undefined)", "AC50": "inconclusive: 100 µM"},
      {"smiles": "CC(=O)C=C(C)C", "AC50": "inconclusive: 100 µM"},
      {"smiles": "CON(C)C(=O)Nc1ccc(Cl)c(Cl)c1", "AC50": "inconclusive: 100 µM"},
      {"smiles": "CC(C)CCCCCCCOC(=O)c1ccccc1C(=O)OCCCCCCCC(C)C", "AC50": "inconclusive: 0.621 µM"},
      {"smiles": "CC(C)(C)C(O)(CCc1ccc(Cl)cc1)Cn1cncn1", "note": "(centres undefined)", "outcome": "inactive"},
      {"smiles": "Oc1ccc(C(c2ccc(O)cc2)(C(F)(F)F)C(F)(F)F)cc1", "AC50": "inconclusive: 11.1 µM and inconclusive: 1 µM"},
      {"smiles": "Oc1c(I)cc(I)cc1I", "AC50": "active: 26.3 µM"},
      {"smiles": "C[C@]12CCC(=O)C=C1CC[C@@H]1[C@@H]2CC[C@@]2(C)[C@H]1CC[C@]2(C)O", "AC50": "inconclusive: 0.1 µM"},
      {"smiles": "CC(c1ccc(O)cc1)(c1ccc(O)cc1)c1ccc(O)cc1", "AC50": "inconclusive: 1 µM"},
      {"smiles": "CC(=O)c1cc2c(cc1C)C(C)(C)C(C)CC2(C)C", "note": "(centres undefined)", "AC50": "inconclusive: 100 µM"},
      {"smiles": "COP(=S)(OC)Oc1ccc([N+](=O)[O-])cc1", "AC50": "inconclusive: 23.6 µM"},
      {"smiles": "CCC(C)(C)c1ccc(O)cc1", "AC50": "inconclusive: 0.542 µM"},
      {"smiles": "O=[N+]([O-])c1ccc(Oc2ccc(Cl)cc2Cl)cc1", "outcome": "inactive"},
      {"smiles": "CCC[CH2][Sn]([Cl])([CH2]CCC)[CH2]CCC", "outcome": "inactive"},
      {"smiles": "C[C@]12CCC(=O)C=C1CC[C@@H]1[C@@H]2CC[C@]2(C)C(=O)CC[C@@H]12", "AC50": "inconclusive: 0.1 µM"},
      {"smiles": "COCCl", "AC50": "inconclusive: 35 µM and inconclusive: 34.8 µM"},
      {"smiles": "CC1(C)C(C=C(Cl)Cl)C1C(=O)OC(C#N)c1ccc(F)c(Oc2ccccc2)c1", "note": "(centres undefined)", "outcome": "inactive"},
      {"smiles": "Clc1ccc(C(c2ccccc2Cl)C(Cl)(Cl)Cl)cc1", "note": "(centres undefined)", "AC50": "inconclusive: 18.4 µM"},
      {"smiles": "CCCCNC(=O)OCC#CI", "AC50": "inconclusive: 173 µM"},
      {"smiles": "Nc1c(Cl)cc([N+](=O)[O-])cc1Cl", "AC50": "active: 48.3 µM"},
      {"smiles": "Clc1ccc(C(c2ccc(Cl)cc2)C(Cl)Cl)cc1", "AC50": "inconclusive: 100 µM"},
      {"smiles": "Oc1ccc2ccc3cccc4ccc1c2c34", "AC50": "inconclusive: 0.397 µM"},
      {"smiles": "COP(=S)(OC)Oc1ccc(SC)c(C)c1", "AC50": "inconclusive: 182 µM"},
      {"smiles": "CO/C=C(/C(=O)OC)c1ccccc1Oc1cc(Oc2ccccc2C#N)ncn1", "outcome": "inactive"}
    ]}
  ]
}
